Measured values from article PMC11787673.
Read-outs that look alike come from different tables or passages of the source. No constants are given. Whether binding was seen depends on the method and setting. In cells and extracts the contact can be indirect. A yes stands for co-enrichment or nearness to the bait. Other partners may have been found. For part of these data: A no says only that the protein was not detected with the bait.

Protein sequences, listed by entry. Tags and fused reporters are not part of them. Lines headed by an entry give the natural chain unless they say otherwise; changes in a name come on top. Residues count along the entry.
UniProt Q64261: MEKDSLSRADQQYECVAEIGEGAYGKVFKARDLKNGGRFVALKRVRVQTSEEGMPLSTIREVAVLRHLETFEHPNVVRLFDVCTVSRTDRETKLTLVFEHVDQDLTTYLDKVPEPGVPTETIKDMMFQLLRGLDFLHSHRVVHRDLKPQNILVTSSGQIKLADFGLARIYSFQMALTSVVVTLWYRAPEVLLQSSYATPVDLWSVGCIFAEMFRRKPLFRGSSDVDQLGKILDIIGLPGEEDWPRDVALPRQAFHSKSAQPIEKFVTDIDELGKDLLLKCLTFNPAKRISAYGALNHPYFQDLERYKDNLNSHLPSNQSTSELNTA
HA-C-terminally truncated Cdk6 (Cdk6 ΔC): residues 1-294 of Q64261
UniProt P24860: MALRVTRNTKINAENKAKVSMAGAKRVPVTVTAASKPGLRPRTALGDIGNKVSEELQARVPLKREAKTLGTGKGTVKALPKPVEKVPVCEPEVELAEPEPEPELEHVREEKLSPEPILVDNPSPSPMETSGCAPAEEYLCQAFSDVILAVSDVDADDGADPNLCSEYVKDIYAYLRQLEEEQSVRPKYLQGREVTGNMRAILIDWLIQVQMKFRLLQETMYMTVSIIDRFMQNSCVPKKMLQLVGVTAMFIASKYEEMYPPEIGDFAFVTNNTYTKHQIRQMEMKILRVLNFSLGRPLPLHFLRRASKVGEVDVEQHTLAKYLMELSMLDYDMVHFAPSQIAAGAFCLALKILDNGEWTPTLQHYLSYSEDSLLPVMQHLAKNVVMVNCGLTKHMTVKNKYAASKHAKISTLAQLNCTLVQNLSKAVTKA
UniProt P46414: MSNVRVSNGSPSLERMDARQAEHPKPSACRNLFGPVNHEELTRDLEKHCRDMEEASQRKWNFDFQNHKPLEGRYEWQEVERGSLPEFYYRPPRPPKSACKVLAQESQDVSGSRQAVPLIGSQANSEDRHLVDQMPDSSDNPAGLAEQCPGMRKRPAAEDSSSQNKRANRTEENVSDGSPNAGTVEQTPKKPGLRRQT

B1: CDC37 (protein, UniProt Q61081 1-379)
chain: MVDYSVWDHIEVSDDEDETHPNIDTASLFRWRHQARVERMEQFQKEKEELDRGCRECKRKVAECQRKLKELEVAESDGQVELERLRAEAQQLRKEERSWEQKLEDMRKKEKNMPWNVDTLSKDGFSKSMVNTKPEKAEEDSEEAREQKHKTFVEKYEKQIKHFGMLHRWDDSQKYLSDNVHLVCEETANYLVIWCIDLEVEEKCALMEQVAHQTMVMQFILELAKSLKVDPRACFRQFFTKIKTADHQYMEGFKYELEAFKERVRGRAKLRIEKAMKEYEEEERKKRLGPGGLDPVEVYESLPEELQKCFDVKDVQMLQDAISKMDPTDAKYHMQRCIDSGLWVPNSKSGEAKEGEEAGPGDPLLEAVPKAGNEKDVSA

Columns and labels:
Experiment in all cases: affinity purification with mass spectrometry; anti-HA magnetic beads with 1 mg RIPA lysate (150 mM NaCl, 50 mM Tris pH 8, 0.1% SDS, 0.5% NaDOC, 1% NP-40) overnight at 4°C, 5 washes with RIPA; label-free LC-MS/MS; Cdk6-/- cells as control
[1] = molecular target: full length HA-tagged Cdk6 (mouse) (UniProt Q64261)
[2] = molecular target: HA-C-terminally truncated Cdk6 (Cdk6 ΔC) (mouse) (UniProt Q64261)
[3] = molecular target: full length HA-tagged Cdk6 (mouse) (UniProt Q64261); remark: listed apart in the source
[4] = molecular target: HA-C-terminally truncated Cdk6 (Cdk6 ΔC) (mouse) (UniProt Q64261); remark: listed apart in the source

Molecule | binding [1] | binding [2] | binding [3] | binding [4]
cyclin B1 (from UniProt P24860 1-430) | binds | binds |  | 
p27^Kip1 (from UniProt P46414 1-197) | binds | no binding |  | 
B1 |  |  | binds | no binding
